The other results are listed elsewhere or left out. Single values are uncertain, as repeats are few or missing.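 The apoptosis fraction was the count of cleaved-PARP antibody-stained nuclei relative to all DNA-stained nuclei, imaged in 1,536-well plates. Screening doses were set so most cells survived, and baseline and induced cleaved-PARP levels vary greatly across cell lines.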
Assays:
Assay in all cases: cleaved PARP positive nuclei fraction relative to DMSO control; melanoma cells; higher = more apoptosis
Conditions in all cases: library dose: low library concentration; 72 h
501Mel = tested on: 501Mel
A101D = tested on: A101D
A2058 = tested on: A2058
A375 = tested on: A375
C32 = tested on: C32
CBRC008 = tested on: CBRC008 (line from a melanoma biopsy)
CBRC014 = tested on: CBRC014 (line from a melanoma biopsy)
CBRC016 = tested on: CBRC016 (line from a melanoma biopsy)
CBRC017 = tested on: CBRC017 (line from a melanoma biopsy)
CBRC034 = tested on: CBRC034 (line from a melanoma biopsy)
COLO792 = tested on: COLO792
COLO800 = tested on: COLO800
COLO829 = tested on: COLO829
G361 = tested on: G361
IPC-298 = tested on: IPC-298
IST-MEL1 = tested on: IST-MEL1
LB2518-MEL = tested on: LB2518-MEL
LOXIMVI = tested on: LOXIMVI
MEL-HO = tested on: MEL-HO

Row | Compound | cleaved PARP positive nuclei fraction (501Mel) [%] | cleaved PARP positive nuclei fraction (A101D) [%] | cleaved PARP positive nuclei fraction (A2058) [%] | cleaved PARP positive nuclei fraction (A375) [%] | cleaved PARP positive nuclei fraction (C32) [%] | cleaved PARP positive nuclei fraction (CBRC008) [%] | cleaved PARP positive nuclei fraction (CBRC014) [%] | cleaved PARP positive nuclei fraction (CBRC016) [%] | cleaved PARP positive nuclei fraction (CBRC017) [%] | cleaved PARP positive nuclei fraction (CBRC034) [%] | cleaved PARP positive nuclei fraction (COLO792) [%] | cleaved PARP positive nuclei fraction (COLO800) [%] | cleaved PARP positive nuclei fraction (COLO829) [%] | cleaved PARP positive nuclei fraction (G361) [%] | cleaved PARP positive nuclei fraction (IPC-298) [%] | cleaved PARP positive nuclei fraction (IST-MEL1) [%] | cleaved PARP positive nuclei fraction (LB2518-MEL) [%] | cleaved PARP positive nuclei fraction (LOXIMVI) [%] | cleaved PARP positive nuclei fraction (MEL-HO) [%]
1 | N#CC[C@H](C1CCCC1)n1cc(-c2ncnc3[nH]ccc23)cn1 [ruxolitinib] + Cc1ccc(Nc2nccc(N(C)c3ccc4c(C)n(C)nc4c3)n2)cc1S(N)(=O)=O [Pazopanib] (first compound 1 µM, partner dose 0.4 µM) | 68.9 | 92.9 | 85 | 83.3 | 79.9 | 145 | 117 | 103 | 207 | 86.5 | 140 | 55.6 | 121 | 187 | 140 | 91.8 | 92.3 | 49.7 | 96.5
2 | Cc1cc(Nc2cc(N3CCN(C)CC3)nc(Sc3ccc(NC(=O)C4CC4)cc3)n2)n[nH]1 [Tozasertib] + CC(C)C[C@H](NC(=O)[C@H](Cc1ccccc1)NC(=O)c1cnccn1)B(O)O [Bortezomib] (first compound 0.006 µM, partner dose 0.001 µM) | 202 | 103 | 164 | 57.9 | 81.9 | 562 | 141 | 137 | 96.4 | 39.7 | 94.7 | 97.4 | 184 | 480 | 63.9 | 131 | 86.3 | 69.4 | 61.2
3 | O=C(/C=C/c1cccnc1)NCCCCC1CCN(C(=O)c2ccccc2)CC1 + CC(=O)c1c(C)c2cnc(Nc3ccc(N4CCNCC4)cn3)nc2n(C2CCCC2)c1=O [palbociclib] (first compound 0.01 µM, partner dose 0.04 µM) | 128 | 172 | 64.2 | 230 | 166 | 6370 | 93.3 | 1220 | 316 | 1420 | 325 | 260 | 234 | 3430 | 645 | 104 | 143 | 70.4 | 152
4 | Cc1cc(Nc2cc(N3CCN(C)CC3)nc(Sc3ccc(NC(=O)C4CC4)cc3)n2)n[nH]1 [Tozasertib] + O=c1[nH]nc(Sc2ncc([N+](=O)[O-])s2)n1-c1ccc2c(c1)OCCO2 [BI78D3] (first compound 0.006 µM, partner dose 0.2 µM) | 67.5 | 270 | 128 | 134 | 179 | 63.4 | 85.4 | 180 | 96.8 | 59 | 148 | 90.3 | 57.4 | 200 | 240 | 31.7 | 91.4 | 215 | 45.8
5 | CC[C@]1(O)C[C@H]2CN(CCc3c([nH]c4ccccc34)[C@@](C(=O)OC)(c3cc4c(cc3OC)N(C=O)[C@H]3[C@@](O)(C(=O)OC)[C@H](OC(C)=O)[C@]5(CC)C=CCN6CC[C@]43[C@@H]65)C2)C1 [vincristine] + COc1ccc(Cl)c(Nc2nc3ccccc3nc2NS(=O)(=O)c2cccc(NC(=O)C(C)(C)N)c2)c1 [XL147] (first compound 0.0001 µM, partner dose 0.8 µM) | 102 | 149 | 156 | 104 | 157 | 388 | 88.3 | 333 | 128 | 171 | 51.5 | 155 | 103 | 89.9 | 29.1 | 145 | 103 | 116 | 119
6 | Cc1cc(Nc2cc(N3CCN(C)CC3)nc(Sc3ccc(NC(=O)C4CC4)cc3)n2)n[nH]1 [Tozasertib] + Cc1ccc(Nc2nccc(N(C)c3ccc4c(C)n(C)nc4c3)n2)cc1S(N)(=O)=O [Pazopanib] (first compound 0.006 µM, partner dose 0.4 µM) | 66.4 | 43.4 | 110 | 222 | 75.1 | 113 | 110 | 157 | 109 | 71.6 | 65 | 134 | 128 | 138 | 148 | 173 | 106 | 133 | 54.6
7 | O=c1[nH]nc(Sc2ncc([N+](=O)[O-])s2)n1-c1ccc2c(c1)OCCO2 + CC1(C)CCC(c2ccc(Cl)cc2)=C(CN2CCN(c3ccc(C(=O)NS(=O)(=O)c4ccc(N[C@H](CCN5CCOCC5)CSc5ccccc5)c(S(=O)(=O)C(F)(F)F)c4)cc3)CC2)C1 [ABT263] (first compound 0.2 µM, partner dose 0.4 µM) | 71.2 | 264 | 183 | 162 | 456 | 385 | 377 | 370 | 320 | 301 | 495 | 114 | 93.7 | 166 | 175 | 78.5 | 259 | 349 | 146
8 | O=c1[nH]nc(Sc2ncc([N+](=O)[O-])s2)n1-c1ccc2c(c1)OCCO2 + Cc1cc(Nc2cc(N3CCN(C)CC3)nc(/C=C/c3ccccc3)n2)n[nH]1 [ENMD2076] (first compound 0.2 µM, partner dose 0.04 µM) | 47.3 | 48.1 | 53.2 | 108 | 206 | 32.3 | 96.3 | 179 | 102 | 62.8 | 92.9 | 109 | 86.6 | 39.9 | 27.3 | 144 | 182 | 78.3 | 57.6
